Laboratory results from the supplement of paper PMC9135407.
Several values for one entry are separate records, joined by “and”; a condition that tells them apart may be missing. Equal values may be shown once. Where a name gives a salt, the structure may show the parent alone. ± gives the standard deviation of the averaged measurements. The list shows a part of the results. Baselines shift from plate to plate; read single values as rough.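 Primary human stellate myofibroblasts activated in culture; inactivation shown by regained lipid droplets. Readout: fraction of Hoechst-counted cells exceeding a per-plate Bodipy threshold, duplicate wells, each plate with DMSO negative and nortriptyline positive controls. Hits: control-normalized score beyond the plate's top-tenth-percentile nortriptyline wells, or among its three best wells. Final well concentrations unstated.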

Tested on: primary human hepatic stellate cells (donor 1)
Test: percent Bodipy-positive cells; higher = more lipid droplet accumulation
Conditions: 48 h
Protocol: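 Primary lipid accumulation screen in primary human hepatic stellate cell myofibroblasts (donor 1, passage 8) in 384-well plates. 100 nL of library compound was pin-transferred into 30 µL medium in duplicate, and cells were treated for 48 h. The 'Scaled' score combines distance from plate baseline, toxicity and reproducibility penalties, and is normalised to nortriptyline (positive) and DMSO (negative) controls on each plate. A hit is defined as scaled >0.85 or among the top 3 wells per plate.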

[1] = library stock concentration: 1 mM
[2] = library stock concentration: 10 mM
[3] = library stock concentration: 3.33 mM
[4] = library stock concentration: 80 uM
[5] = library stock concentration: 400 uM
[6] = library stock concentration: 2 mM

## Cc1nnsc1C(=O)Nc1ccc(-n2nc(C(F)(F)F)cc2C(F)(F)F)cc1
[1]
  percent Bodipy-positive cells: 18.9 ± 2.2%

## CN1CCN(C2=Cc3ccccc3Oc3ccc(Cl)cc32)CC1.O=C(O)/C=C/C(=O)O
[2]
  percent Bodipy-positive cells: 79 ± 4.9%

## CCCCC(C)(C)[C@H](O)/C=C/[C@H]1C=CC(=O)[C@@H]1C/C=C\CCCC(=O)O [16,16-dimethyl Prostaglandin A2]
[1]
  percent Bodipy-positive cells: 14.8 ± 1.1%

## C=CC(=O)Nc1cccc(Nc2nc(Nc3ccc(Oc4ccnc(C(=O)NC)c4)cc3)ncc2F)c1
[3]
  percent Bodipy-positive cells: 48.1 ± 2.3%
[2]
  percent Bodipy-positive cells: 77.6 ± 16%

## CCCSc1nc(N[C@@H]2C[C@H]2c2ccc(F)c(F)c2)c2nnn([C@@H]3C[C@H](OCCO)[C@@H](O)[C@H]3O)c2n1 [Ticagrelor]
[3]
  percent Bodipy-positive cells: 11.8 ± 6.9%
[2]
  percent Bodipy-positive cells: 60.9 ± 8.4%

## CC(=O)O[C@]1(C(C)=O)CC[C@H]2[C@@H]3C=C(Cl)C4=CC(=O)[C@@H]5C[C@@H]5[C@]4(C)[C@H]3CC[C@@]21C [Cyproterone Acetate]
[3]
  percent Bodipy-positive cells: 10.6 ± 0.56%
[2]
  percent Bodipy-positive cells: 17.1 ± 1.5%

## CC(=O)O[C@]1(C(C)=O)CC[C@H]2[C@@H]3C=C(Cl)C4=CC(=O)[C@@H]5C[C@@H]5[C@]4(C)[C@H]3CC[C@@]21C [Cyproterone acetate]
  percent Bodipy-positive cells: 13.4 ± 0.41%
Library stock concentration: 4.8 mM
  percent Bodipy-positive cells: 12.4% and 4.18%

## O=C(O)C1CCCN(CCC=C(c2ccccc2)c2ccccc2)C1 (stereo not given)
[2]
  percent Bodipy-positive cells: 24.7% and 8.24%

## CCCCC[C@H](O)/C=C/[C@@H]1[C@@H](C/C=C\CCCC(=O)NCC)[C@@H](O)C[C@H]1O [Prostaglandin F2.alpha. ethyl amide]
[1]
  percent Bodipy-positive cells: 7.55 ± 0.52%

## CC(C)c1cc(-c2n[nH]c(=O)n2-c2ccc3c(ccn3C)c2)c(O)cc1O [Ganetespib]
[4]
  percent Bodipy-positive cells: 52.1 ± 5.2%
[5]
  percent Bodipy-positive cells: 62.2 ± 11%

## CC(C)c1cc(-c2n[nH]c(=O)n2-c2ccc3c(ccn3C)c2)c(O)cc1O [Ganetespib (STA-9090)]
[3]
  percent Bodipy-positive cells: 73 ± 7.4%
[2]
  percent Bodipy-positive cells: 78.1 ± 5%

## Clc1ccc(CO/N=C(\Cn2ccnc2)c2ccc(Cl)cc2Cl)c(Cl)c1
[2]
  percent Bodipy-positive cells: 93.3 ± 2.2%

## Clc1ccc(CO/N=C(\Cn2ccnc2)c2ccc(Cl)cc2Cl)c(Cl)c1 [Oxiconazole nitrate]
Library stock concentration: 4.7 mM
  percent Bodipy-positive cells: 19.1 ± 5.4%
[2]
  percent Bodipy-positive cells: 51.2 ± 11%

## COc1ccc(-c2ccc3ncc4c(c3c2)n(-c2ccc(N3CCNCC3)c(C(F)(F)F)c2)c(=O)n4C)cn1
[4]
  percent Bodipy-positive cells: 40.1 ± 9.9%
[6]
  percent Bodipy-positive cells: 96.8 ± 2.2%
[3]
  percent Bodipy-positive cells: 92 ± 5.4%
[2]
  percent Bodipy-positive cells: 12.5% and 20.9%

## C#C[C@]1(OC(C)=O)CC[C@H]2[C@@H]3CCC4=CC(=NO)CC[C@@H]4[C@H]3CC[C@@]21CC (mixture of isomers) [Norgestimate]
Library stock concentration: 5.4 mM
  percent Bodipy-positive cells: 13 ± 3.9%

## O=C(CCc1ccc(O)c(O)c1)N[C@@H](CC(=O)OCc1ccccc1)C(=O)OCc1ccccc1
[1]
  percent Bodipy-positive cells: 7.92 ± 0.73%

## Cl.O[Si](CCCN1CCCCC1)(c1ccc(F)cc1)C1CCCCC1 (stereo not given) [Hexahydro-sila-difenidol hydrochloride, p-fluoro analog]
[2]
  percent Bodipy-positive cells: 95.2 ± 2%

## CC(C)n1cnc2c(NCc3ccccc3O)nc(NCCCO)nc21 [Cdk Inhibitor, p35]
[3]
  percent Bodipy-positive cells: 25.1 ± 1.3%

## Clc1ccc(C2(c3ccc(-c4cn[nH]c4)cc3)CCNCC2)cc1
[3]
  percent Bodipy-positive cells: 99.1 ± 1.2%

## O=C1c2ccccc2C(=O)C1c1ccc(Cl)cc1
[2]
  percent Bodipy-positive cells: 46.2 ± 1.2%

## COc1ccc2cc([C@H](C)CO)ccc2c1 [Naproxol]
Library stock concentration: 9.2 mM
  percent Bodipy-positive cells: 10.2 ± 7%
[2]
  percent Bodipy-positive cells: 28.5 ± 7.3%

## CCCCCC1OC(O)CC1SC[C@H](NC(C)=O)C(=O)O (stereo not given in full) [4-hydroxy Nonenal Mercapturic Acid]
[1]
  percent Bodipy-positive cells: 12.3 ± 2.9%

## N#CSc1cc(SC#N)c(N)nc1N
[3]
  percent Bodipy-positive cells: 72.2 ± 4.8%
[2]
  percent Bodipy-positive cells: 99.71 ± 0.42%

## COc1cc2nc(N(C)CCCNC(=O)C3CCCO3)nc(N)c2cc1OC (stereo not given) [Alfluzocin]
[2]
  percent Bodipy-positive cells: 28.94 ± 0.088%

## COc1cc2nc(N(C)CCCNC(=O)C3CCCO3)nc(N)c2cc1OC (stereo not given) [Alfuzosin hydrochloride]
  percent Bodipy-positive cells: 29.6 ± 12%
[2]
  percent Bodipy-positive cells: 59.3 ± 3.9%

## COc1cc2nc(N(C)CCCNC(=O)C3CCCO3)nc(N)c2cc1OC (stereo not given) [Alfluzosin]
Library stock concentration: 5.1 mM
  percent Bodipy-positive cells: 9.71 ± 0.5%

## COc1cc2nc(N(C)CCCNC(=O)C3CCCO3)nc(N)c2cc1OC (stereo not given) [Alfuzosin HCl]
[3]
  percent Bodipy-positive cells: 7.44 ± 1.1%
[2]
  percent Bodipy-positive cells: 23.7 ± 2%

## COc1cc2nc(N(C)CCCNC(=O)C3CCCO3)nc(N)c2cc1OC (stereo not given)
[2]
  percent Bodipy-positive cells: 11.7 ± 2%

## Oc1ccc2ccccc2c1SSc1c(O)ccc2ccccc12
[3]
  percent Bodipy-positive cells: 29.83 ± 0.18%
[2]
  percent Bodipy-positive cells: 82.17 ± 0.19%

## [O-]/[N+](=N\O[C@@H]1O[C@H](CO)[C@H](O)[C@H](O)[C@H]1O)N1CCCC1 [.beta.-Gal-NONOate]
[1]
  percent Bodipy-positive cells: 9.06 ± 1.8%

## Clc1ccc(Cn2c(CN3CCCC3)nc3ccccc32)cc1 [Clemizole hydrochloride]
  percent Bodipy-positive cells: 44.8 ± 6.3%

## COc1ccc2c(c1)c(CC(=O)SC[C@H](NC(C)=O)C(=O)OCCCCO[N+](=O)[O-])c(C)n2C(=O)c1ccc(Cl)cc1 [NO-Indomethacin]
[1]
  percent Bodipy-positive cells: 11.3 ± 4.1%

## CCCCc1nc2cc(/C=C/C(=O)NO)ccc2n1CCN(CC)CC [Pracinostat (SB939)]
[3]
  percent Bodipy-positive cells: 61.4 ± 6.4%
[2]
  percent Bodipy-positive cells: 56.6 ± 7.2%

## CCCCc1nc2cc(/C=C/C(=O)NO)ccc2n1CCN(CC)CC
[4]
  percent Bodipy-positive cells: 39.4 ± 1.1%
[5]
  percent Bodipy-positive cells: 47.3 ± 3.3%
[6]
  percent Bodipy-positive cells: 84.6 ± 4.1%
[2]
  percent Bodipy-positive cells: 89.1 ± 2.5%

## O=C(Nc1cccc2cccnc12)c1ccc(N2C(=O)C3C4C=CC(C4)C3C2=O)cc1 (stereo not drawn) [IWR-1-endo]
[3]
  percent Bodipy-positive cells: 15.4 ± 14%
[2]
  percent Bodipy-positive cells: 40.8 ± 19%

## O=C(O)/C=C/c1ccc(O)c(O)c1 [Caffeic acid]
  percent Bodipy-positive cells: 7.86 ± 0.2%

## O=C(O)/C=C/c1ccc(O)c(O)c1 [Caffeic Acid]
[1]
  percent Bodipy-positive cells: 9.39 ± 2.9%
[3]
  percent Bodipy-positive cells: 8.11 ± 0.75%

## CC1(C)CC(=O)c2c(C(F)(F)F)nn(-c3ccc(C(N)=O)c(N[C@H]4CC[C@H](O)CC4)c3)c2C1
[3]
  percent Bodipy-positive cells: 74.91 ± 0.13%
[2]
  percent Bodipy-positive cells: 70.9 ± 1.1%

## NC(N)=Nc1ccc(Cl)cc1 [4-Chlorophenylguanidine hydrochloride]
[2]
  percent Bodipy-positive cells: 9.91 ± 1.1%

## CCCCCCCCCCCCCCCC(=O)OC[C@@H](NC(=O)C(Cl)Cl)[C@H](O)c1ccc([N+](=O)[O-])cc1 [Chloramphenicol palmitate]
Library stock concentration: 3.6 mM
  percent Bodipy-positive cells: 1.56 ± 0.018%

## Cc1[nH]c2ccccc2c1C1=C(NCCc2ccc(F)cc2)C(=O)N(C)C1=O
[3]
  percent Bodipy-positive cells: 28.4 ± 7.7%
[2]
  percent Bodipy-positive cells: 44.8 ± 0.66%

## N=C(N)Nc1ccc(C(=O)Oc2ccc3cc(C(=N)N)ccc3c2)cc1 [Nafamostat mesylate]
Library stock concentration: 11.3 mM
  percent Bodipy-positive cells: 8.17 ± 0.11%

## N=C(N)Nc1ccc(C(=O)Oc2ccc3cc(C(=N)N)ccc3c2)cc1 [Nafamostat Mesylate]
[3]
  percent Bodipy-positive cells: 7.27 ± 0.78%
[2]
  percent Bodipy-positive cells: 12.6 ± 6.5%

## CC(Cc1ccccc1)(NC(=O)CN)c1ccccc1 (racemic)
[2]
  percent Bodipy-positive cells: 58.58 ± 0.088%

## O=C1C(SCCO)=C(SCCO)C(=O)c2ccccc21
[2]
  percent Bodipy-positive cells: 99.73 ± 0.38%

## OCC1OC(n2cnc3c(NC4CCCCC4)ncnc32)C(O)C1O (stereo not given) [N6-Cyclohexyladenosine]
[2]
  percent Bodipy-positive cells: 50.8 ± 6.1%
